Experimental data: paper PMC5736654
Results are given in words; binding and its absence hold for the method and conditions named. In cells and extracts the contact can be indirect. Some entries that bind do so weakly or less than the wild type.

Chains of the proteins cited; added tags and fusions are not shown.
UniProt Q12809: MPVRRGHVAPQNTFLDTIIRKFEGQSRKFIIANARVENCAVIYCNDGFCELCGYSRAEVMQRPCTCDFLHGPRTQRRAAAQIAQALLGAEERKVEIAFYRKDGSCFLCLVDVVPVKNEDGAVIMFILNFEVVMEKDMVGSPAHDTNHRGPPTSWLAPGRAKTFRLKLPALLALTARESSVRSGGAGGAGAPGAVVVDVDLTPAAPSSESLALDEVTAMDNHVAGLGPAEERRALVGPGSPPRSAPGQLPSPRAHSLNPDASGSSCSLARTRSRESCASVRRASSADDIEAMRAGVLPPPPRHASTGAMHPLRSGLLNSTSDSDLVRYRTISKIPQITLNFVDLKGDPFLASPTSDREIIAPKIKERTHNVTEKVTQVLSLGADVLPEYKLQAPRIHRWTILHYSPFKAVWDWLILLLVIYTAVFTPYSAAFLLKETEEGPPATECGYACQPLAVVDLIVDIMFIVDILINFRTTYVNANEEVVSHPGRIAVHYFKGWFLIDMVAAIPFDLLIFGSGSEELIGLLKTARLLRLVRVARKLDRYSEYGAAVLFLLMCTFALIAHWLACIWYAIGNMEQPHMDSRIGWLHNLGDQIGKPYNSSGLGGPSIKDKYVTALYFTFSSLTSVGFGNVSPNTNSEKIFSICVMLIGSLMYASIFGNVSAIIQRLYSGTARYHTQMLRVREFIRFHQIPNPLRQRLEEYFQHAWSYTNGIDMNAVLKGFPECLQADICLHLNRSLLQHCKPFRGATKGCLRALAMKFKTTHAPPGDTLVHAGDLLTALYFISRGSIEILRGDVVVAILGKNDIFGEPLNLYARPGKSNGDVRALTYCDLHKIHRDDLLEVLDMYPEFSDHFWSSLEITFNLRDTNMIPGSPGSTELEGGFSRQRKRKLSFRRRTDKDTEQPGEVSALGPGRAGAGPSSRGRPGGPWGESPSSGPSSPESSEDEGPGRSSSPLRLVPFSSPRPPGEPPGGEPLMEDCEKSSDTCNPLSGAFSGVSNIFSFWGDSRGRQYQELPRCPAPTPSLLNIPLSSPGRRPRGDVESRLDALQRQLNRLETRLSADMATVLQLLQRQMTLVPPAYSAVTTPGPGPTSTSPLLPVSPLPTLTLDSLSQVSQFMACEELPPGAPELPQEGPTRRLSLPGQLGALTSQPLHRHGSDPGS

T1: Kv4.3 (α subunit of Ito, KCND3) (human) (UniProt Q9UK17)
T1 sequence: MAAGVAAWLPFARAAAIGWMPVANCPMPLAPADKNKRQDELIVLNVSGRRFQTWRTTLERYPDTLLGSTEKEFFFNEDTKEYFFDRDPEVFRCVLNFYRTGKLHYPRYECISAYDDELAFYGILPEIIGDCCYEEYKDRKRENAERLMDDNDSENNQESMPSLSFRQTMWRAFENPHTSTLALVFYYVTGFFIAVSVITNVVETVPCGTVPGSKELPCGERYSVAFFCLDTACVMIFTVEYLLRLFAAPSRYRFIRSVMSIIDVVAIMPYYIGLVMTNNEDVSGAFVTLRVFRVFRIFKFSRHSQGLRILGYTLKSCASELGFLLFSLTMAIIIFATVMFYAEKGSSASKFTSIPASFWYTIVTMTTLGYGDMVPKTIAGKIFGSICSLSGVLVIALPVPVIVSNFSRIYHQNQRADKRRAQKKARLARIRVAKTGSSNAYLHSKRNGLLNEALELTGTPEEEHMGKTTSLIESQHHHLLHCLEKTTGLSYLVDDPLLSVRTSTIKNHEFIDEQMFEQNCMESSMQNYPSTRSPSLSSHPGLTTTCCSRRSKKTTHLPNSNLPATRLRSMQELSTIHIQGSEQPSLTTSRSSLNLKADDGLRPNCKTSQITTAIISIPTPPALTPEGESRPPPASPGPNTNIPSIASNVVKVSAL


Tests used:
[1] = target: T1, Kv4.3 (α subunit of Ito, KCND3) (human); assay: co-IP; whole-cell lysate (0.5 mg) of HEK293T cells co-transfected with hERG and Kv4.3, also with Hsp70 siRNA; primary antibody overnight at 4 °C, protein A/G plus agarose beads 4 h at 4 °C, washed with RIPA lysis buffer, Western blot
[2] = target: hERG (α subunit of IKr, encoded by the human ether a-go-go-related gene) (human) (UniProt Q12809); assay: as above

Molecule	binding [1]	binding [2]
hERG, fully glycosylated mature form (155 kDa) (from UniProt Q12809 1-1159)	binds	–
hERG, core-glycosylated immature form (135 kDa) (from UniProt Q12809 1-1159)	binds	–
Kv4.3 (α subunit of Ito, KCND3) (protein, UniProt Q9UK17 1-655) MAAGVAAWLPFARAAAIGWMPVANCPMPLAPADKNKRQDELIVLNVSGRRFQTWRTTLERYPDTLLGSTEKEFFFNEDTKEYFFDRDPEVFRCVLNFYRTGKLHYPRYECISAYDDELAFYGILPEIIGDCCYEEYKDRKRENAERLMDDNDSENNQESMPSLSFRQTMWRAFENPHTSTLALVFYYVTGFFIAVSVITNVVETVPCGTVPGSKELPCGERYSVAFFCLDTACVMIFTVEYLLRLFAAPSRYRFIRSVMSIIDVVAIMPYYIGLVMTNNEDVSGAFVTLRVFRVFRIFKFSRHSQGLRILGYTLKSCASELGFLLFSLTMAIIIFATVMFYAEKGSSASKFTSIPASFWYTIVTMTTLGYGDMVPKTIAGKIFGSICSLSGVLVIALPVPVIVSNFSRIYHQNQRADKRRAQKKARLARIRVAKTGSSNAYLHSKRNGLLNEALELTGTPEEEHMGKTTSLIESQHHHLLHCLEKTTGLSYLVDDPLLSVRTSTIKNHEFIDEQMFEQNCMESSMQNYPSTRSPSLSSHPGLTTTCCSRRSKKTTHLPNSNLPATRLRSMQELSTIHIQGSEQPSLTTSRSSLNLKADDGLRPNCKTSQITTAIISIPTPPALTPEGESRPPPASPGPNTNIPSIASNVVKVSAL	–	binds
